Measurements published in PubChem BioAssay AID2685 (National Center for Advancing Translational Sciences (NCATS), 2010).
Out of some 320,000 compounds screened, about 2,100 (0.66%) were called active. The shares of active, inactive and inconclusive entries below differ from those in the screen. Calls come from the whole dose curve; as a rule, active = well fitted inhibition curve with a large enough effect in the signal ratio, with a control signal flat (not every such curve was filed as active); inconclusive = small, poorly fitted or top-dose-only effect, or effect the other way, or a change in a side signal; inactive = flat fitted curve, though single readings scatter; the % refers to the signal ratio. A potency beside an inconclusive call is a rough fit, not a confirmed value.

Experiment: qHTS Assay for Lipid Storage Modulators in Drosophila S3 Cells
Settings: BODIPY lipid droplet fluorescence, 18-24 h, cells fed with added oleic acid; lipid storage change, negative = inhibition: at 46.1 µM (top of the series) unless noted
Outline: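 Laser-scanning cytometry quantifies lipid droplet accumulation (500–530 nm total intensity; droplet/cell object ratio) in oleic acid-fed (400 uM added) Drosophila S3 cells treated with a concentration series. 20 uM Triacsin C defined 100% inhibition.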
% is set by controls: 0 for no effect and ±100 for the full control effect; potency is the fitted concentration of half-maximal effect.

Lipid storage change, negative = inhibition, inconclusive:
CCOc1ccc(NC(=O)c2ccc(NC(=O)CN3C(=O)C(=O)N(CC(C)C)C3=O)cc2)cc1 -27.2%, N#Cc1ccc(NC(=O)c2cc(S(=O)(=O)N3CCOCC3)ccc2N2CCCC2)cc1, CC1CN(C(=S)SCC(=O)c2ccc([N+](=O)[O-])cc2)CC(C)O1 (stereo unspecified) 38.2%, CN(Cc1ccc(OC(F)F)cc1)Cc1nc2c(Br)cc(Br)cc2c(=O)[nH]1 4.53%, O=C(CN(Cc1ccco1)S(=O)(=O)c1cccs1)Nc1ccccc1C(F)(F)F 18.2%, COc1cc(S(=O)(=O)N2CCN(C(=O)c3ccccc3)CC2)c(OC)cc1Br -12.7%, CC(=O)Nc1cccc(C(=O)OCC(=O)Nc2ccc(Cl)cn2)c1 28.1%, COc1ccc(OC)c(S(=O)(=O)N(C)CC(=O)Nc2ccccc2OC)c1 22.9%, CC(Nc1cc(=O)n(C)c(=O)[nH]1)c1ccccc1 (stereo unspecified) 35%, Cc1cc(C)c(C#N)c(SCC(=O)Nc2ccccc2C(N)=O)n1 -23.9%, Nc1ncc(-c2ccccc2)c(-c2ccc(O)cc2O)n1 7.16%, Cc1ccccc1N/C(SCc1ccc(Cl)cc1)=C(/C#N)C(N)=O 32.8%, COc1ccc(OCC(=O)N/N=C(\C)CC(=O)Nc2cccc([N+](=O)[O-])c2)cc1 17%, COCCNC(=O)C(=O)NCC1OCCN1S(=O)(=O)c1ccc(F)cc1 (stereo unspecified) 19%, O=C(O)[C@H](Cc1ccccc1)NC(=O)N1CCN(c2cccc(C(F)(F)F)c2)CC1 -18.2%, CCN(CC(=O)Nc1ccc(N2CCOCC2)cc1)C(=O)COc1ccccc1OC 60.2%

Potency, inconclusive:
Cc1ccc(NC(=O)CCn2nc(C)cc2C)c(C)c1 0.58 µM [activator, partial curve, poor fit], CCOC(=O)c1csc(NC(=O)c2ccc(S(=O)(=O)N(C)C)cc2)n1 18.4 µM [activator, partial curve], CCOC(=O)c1ccc(-c2c(-c3cc(OC)c(OC)c(OC)c3)noc2C)cc1F 4.61 µM [activator, full curve, poor fit], Nc1cc([N+](=O)[O-])ccc1Nc1ccccc1 0.0731 µM [falling, full curve, poor fit], O=S(=O)(Nc1cc2nc3ccccc3nc2n1Cc1ccccc1)c1ccc(Cl)cc1 9.2 µM [falling, partial curve]
